Experimental data as given in patent publication US20170189504A1, “NOVEL PEPTIDES AND COMBINATION OF PEPTIDES FOR USE IN IMMUNOTHERAPY AGAINST VARIOUS CANCERS” (immatics biotechnologies GmbH, priority 2015, published 2017).

How the values were obtained:
[1] = system: source genes (mRNA); test: Expression profiling of source genes by in-house RNASeq of tumor and normal tissues (Table 18, FIG. 2); parameters: species or system human; key: very highly over-expressed in tumors compared to a panel of normal tissues (+++); highly over-expressed in tumors compared to a panel of normal tissues (++); over-expressed in tumors compared to a panel of normal tissues (+); conditions: source gene of peptide; for Expression score BRCA: BRCA tumors vs panel of normal tissues; for Expression score OSCAR: esophageal cancer incl. gastric-esophageal junction (N = 11) vs panel of normal tissues; for Expression score GB: glioblastoma (N = 24) vs panel of normal tissues; for Expression score NSCLC: non-small cell lung cancer (N = 11) vs panel of normal tissues; for Expression score OC: ovarian cancer (N = 12) vs panel of normal tissues; for Expression score SCLC: small cell lung cancer (N = 10) vs panel of normal tissues; for Expression score NHL: non-Hodgkin lymphoma (N = 10) vs panel of normal tissues; for Expression score UEC: uterine cancer (N = 10) vs panel of normal tissues
[2] = system: source genes (mRNA); test: Gene and exon expression of source genes, TCGA tumor samples compared with normal tissue samples (Lonsdale, 2013) (Table 17); parameters: species or system human; conditions: for Target coverage: over-expression category of source gene, LAML: Acute Myeloid Leukemia (N = 173); for Target coverage: over-expression category of source gene, BRCA: Breast cancer (N = 1104), cutoff more than 2-fold above highest 75% percentile of high and medium risk normal tissue samples; for Target coverage: over-expression category of source gene, KIRC: Clear cell kidney carcinoma (N = 534); for Target coverage: over-expression category of source gene, READ: Colon and rectal adenocarcinoma (N = 167); for Target coverage: over-expression category of source gene, COAD: Colon and rectal adenocarcinoma (N = 462); for Target coverage: over-expression category of source gene, ESCA: Esophageal cancer (N = 185); for Target coverage: over-expression category of source gene, LUAD: Lung adenocarcinoma (N = 517); for Target coverage: over-expression category of source gene, LUSC: Lung squamous cell carcinoma (N = 503); for Target coverage: over-expression category of source gene, OV: Ovarian serous cystadenocarcinoma (N = 309); for Target coverage: over-expression category of source gene, SKCM: Skin cutaneous melanoma (N = 473); for Target coverage: over-expression category of source gene, STAD: Stomach adenocarcinoma (N = 415); for Target coverage: over-expression category of source gene, DLBC: Lymphoid neoplasm diffuse large B-cell lymphoma (N = 48); for Target coverage: over-expression category of source gene, GBM: Glioblastoma multiforme (N = 169)
[3] = system: HLA-A*02; test: Identification and relative LC-MS quantitation of HLA-A*02-presented tumor-associated peptides on tissue samples (presentation profiles, Tables 13A, 13B, 15, FIG. 1); parameters: species or system human; key to Presentation score NHL / Presentation score CLL / Presentation score BRCA / Presentation score AML / Presentation score GB / Presentation score NSCLC / Presentation score GBC_CCC / Presentation score UEC / Presentation score MEL / Presentation score OSCAR / Presentation score GC / Presentation score UBC / Presentation score OC / Presentation score RCC / Presentation score CRC / Presentation score PCA / Presentation score HCC / Presentation score PC / Presentation score SCLC: specifically presented on tumors (++++); very highly over-presented on tumors compared to a panel of normal tissues (+++); highly over-presented on tumors compared to a panel of normal tissues (++); over-presented on tumors compared to a panel of normal tissues (+); conditions: for Presentation score AML: acute myeloid leukemia (N = 18) vs panel of normal tissues (N = 262); for Presentation score NHL: non-Hodgkin lymphoma (N = 18) vs panel of normal tissues (N = 262); for Presentation score OC: ovarian cancer (N = 20) vs panel of normal tissues (N = 262); for Peptide Presentation on cancer entities: HLA-A*02-binding tumor-associated peptides
[4] = cutoff more than 2-fold above highest 75% percentile of normal tissue samples
[5] = Table 13A, cancer entities on which the peptide was found presented
[6] = Table 13B, presentation on additional cancer entities

Row | Substance | Expression score BRCA [1] | Expression score OSCAR [1] | Expression score GB [1] | Expression score NSCLC [1] | Expression score OC [1] | Expression score SCLC [1] | Target coverage: over-expression category of source gene, LAML [2, 4] | Target coverage: over-expression category of source gene, BRCA [2] | Target coverage: over-expression category of source gene, KIRC [2, 4] | Target coverage: over-expression category of source gene, READ [2, 4] | Target coverage: over-expression category of source gene, COAD [2, 4] | Target coverage: over-expression category of source gene, ESCA [2, 4] | Target coverage: over-expression category of source gene, LUAD [2, 4] | Target coverage: over-expression category of source gene, LUSC [2, 4] | Presentation score AML ([3]; HLA-A*02 peptides) | Presentation score NHL ([3]; HLA-A*02 peptides) | Presentation score OC ([3]; HLA-A*02 peptides) | Peptide Presentation on cancer entities [3, 5] | Expression score NHL [1] | Peptide Presentation on cancer entities [3, 6] | also measured
1 | 34: peptide found in HUWE1 (gene looked up) (FLLATEVVTV; listed as Homo sapiens) [compound 34] | + | + | + | + | + | + | A (>=50% of tumors above the cutoff) | B (>= 20% of tumors above the cutoff, but <50%) | B (>= 20% of tumors above the cutoff, but <50%) | C (>=5% of tumors above the cutoff, but <20%) | C (>=5% of tumors above the cutoff, but <20%) | A (>=50% of tumors above the cutoff) | C (>=5% of tumors above the cutoff, but <20%) | C (>=5% of tumors above the cutoff, but <20%) | ++++ | ++++ | ++++ | OC, SCLC, AML, NHL |  |  | Target coverage: over-expression category of source gene, KICH ([2]; Kidney chromophobe (N = 66), cutoff more than 2-fold above highest 75% percentile of normal tissue samples): C (>=5% of tumors above the cutoff, but <20%); Target coverage: over-expression category of source gene, LGG ([2]; Lower grade glioma (N = 534), cutoff more than 2-fold above highest 75% percentile of normal tissue samples): B (>= 20% of tumors above the cutoff, but <50%); Target coverage: over-expression category of source gene, OV [2, 4]: B (>= 20% of tumors above the cutoff, but <50%); Target coverage: over-expression category of source gene, PAAD ([2]; Pancreatic ductal adenocarcinoma (N = 179), cutoff more than 2-fold above highest 75% percentile of normal tissue samples): C (>=5% of tumors above the cutoff, but <20%); Target coverage: over-expression category of source gene, KIRP ([2]; Papillary kidney carcinoma (N = 291), cutoff more than 2-fold above highest 75% percentile of normal tissue samples): C (>=5% of tumors above the cutoff, but <20%); Target coverage: over-expression category of source gene, PRAD ([2]; Prostate adenocarcinoma (N = 498), cutoff more than 2-fold above highest 75% percentile of normal tissue samples): C (>=5% of tumors above the cutoff, but <20%); Target coverage: over-expression category of source gene, SKCM [2, 4]: B (>= 20% of tumors above the cutoff, but <50%); Target coverage: over-expression category of source gene, STAD [2, 4]: A (>=50% of tumors above the cutoff); Target coverage: over-expression category of source gene, UCEC ([2]; Uterine corpus endometrial carcinoma (N = 546), cutoff more than 2-fold above highest 75% percentile of normal tissue samples): C (>=5% of tumors above the cutoff, but <20%); Presentation score SCLC ([3]; HLA-A*02 peptides, small cell lung cancer (N = 19) vs panel of normal tissues (N = 262)): ++++
2 | 40: peptide found in GZMK (gene looked up) (VLIDPQWVLTA; listed as Homo sapiens) [compound 40] |  |  |  |  | + |  |  |  | C (>=5% of tumors above the cutoff, but <20%) |  |  |  |  |  |  | ++++ | ++++ | OC, NHL | + | CRC | Expression score RCC ([1]; renal cell carcinoma (N = 10) vs panel of normal tissues): +; Target coverage: over-expression category of source gene, DLBC [2, 4]: A (>=50% of tumors above the cutoff)
3 | 41: peptide found in PHKG1 (gene looked up) (ALFENTPKA; listed as Homo sapiens) [compound 41] |  |  | + |  |  |  |  |  |  |  |  |  |  |  |  |  |  |  |  |  | Target coverage: over-expression category of source gene, GBM [2, 4]: C (>=5% of tumors above the cutoff, but <20%); Presentation score GB ([3]; HLA-A*02 peptides, glioblastoma (N = 41) vs panel of normal tissues (N = 262)): ++++
4 | 44: peptide found in KNTC1 (gene looked up) (SLFETAWEA; listed as Homo sapiens) [compound 44] | + | + | + | ++ | + | +++ | A (>=50% of tumors above the cutoff) | B (>= 20% of tumors above the cutoff, but <50%) |  | B (>= 20% of tumors above the cutoff, but <50%) | B (>= 20% of tumors above the cutoff, but <50%) | A (>=50% of tumors above the cutoff) | C (>=5% of tumors above the cutoff, but <20%) | B (>= 20% of tumors above the cutoff, but <50%) | ++++ | ++++ |  | NSCLC, MEL, AML, NHL | +++ | UEC, CRC, HNSCC | Expression score AML ([1]; acute myeloid leukemia (N = 11) vs panel of normal tissues): +; Expression score CLL ([1]; chronic lymphocytic leukemia (N = 10) vs panel of normal tissues): ++; Expression score CRC ([1]; colorectal cancer (N = 20) vs panel of normal tissues): +; Expression score UBC ([1]; urinary bladder cancer (N = 10) vs panel of normal tissues): +; Expression score UEC [1]: +; Target coverage: over-expression category of source gene, BLCA ([2]; Bladder urothelial carcinoma (N = 408), cutoff more than 2-fold above highest 75% percentile of normal tissue samples): C (>=5% of tumors above the cutoff, but <20%); Target coverage: over-expression category of source gene, GBM [2, 4]: C (>=5% of tumors above the cutoff, but <20%); Target coverage: over-expression category of source gene, DLBC [2, 4]: B (>= 20% of tumors above the cutoff, but <50%); Target coverage: over-expression category of source gene, OV [2, 4]: C (>=5% of tumors above the cutoff, but <20%); Target coverage: over-expression category of source gene, SKCM [2, 4]: B (>= 20% of tumors above the cutoff, but <50%); Target coverage: over-expression category of source gene, STAD [2, 4]: B (>= 20% of tumors above the cutoff, but <50%); Presentation score MEL ([3]; HLA-A*02 peptides, melanoma (N = 7) vs panel of normal tissues (N = 262)): ++++; Presentation score NSCLC ([3]; HLA-A*02 peptides, non-small cell lung cancer (N = 90) vs panel of normal tissues (N = 262)): ++++
5 | 45: peptide found in BARD1 (gene looked up) (SLTEVSLPL; listed as Homo sapiens) [compound 45] | + |  | + | + | + | ++ | C (>=5% of tumors above the cutoff, but <20%) |  |  |  |  | C (>=5% of tumors above the cutoff, but <20%) |  |  | ++++ | ++++ | ++++ | OC, GBC_CCC, AML, NHL | ++ | NSCLC, CRC, HNSCC | Expression score GBC_CCC ([1]; gallbladder adenocarcinoma and cholangiocarcinoma (N = 3) vs panel of normal tissues): +; Expression score UEC [1]: +; Presentation score GBC_CCC ([3]; HLA-A*02 peptides, gallbladder adenocarcinoma and cholangiocarcinoma (N = 6) vs panel of normal tissues (N = 262)): ++++

For part of these data: For expression read-outs the peptide stands for its source gene, whose mRNA was measured; the gene is not named for every peptide.
